At least one structure is not confirmed: it was looked up by name or label, or the drawing left a doubt.
Assays:
[1] = test system: type-II diabetic patients; conditions: cited from earlier work
KK-Ay mice = assay: Effect in KK-Ay model mice of type-II diabetes mellitus (body weight, blood glucose); assay type: in vivo, mouse; conditions: 4 weeks feeding
Procedure: KK-Ay mice, a model of genetically obese and type-II diabetic animals, were used to evaluate the effect of curcumin. Pioglitazone, a drug for treating diabetes mellitus, was used as a positive control.
KK-Ay mice (females, 6 weeks old) were divided into 3 groups (5 animals per group). By using a normal diet (product of Oriental Yeast Co. Ltd., Table 3) as a base feed, three types of feeds, i.e., a diet with out any additives, with pioglitazone and with curcumin, were prepared. Mice were placed in an environment in which they were freely accessible to a diet without any additives (control group), with pioglitazone (pioglitazone-added group) or with curcumin (curcumin-added group) for 4 weeks. Pioglitazone used was obtained by grinding Actos tablet 30 (30 mg pioglitazone per tablet, Takeda Chemical Industries Ltd.) in an agate mortar. The ground Actos tablet was then added to the normal diet at a dose of 0.04% pioglitazone. Curcumin was added to the normal diet at a dose of 0.5% curcumin.
During feeding, a small amount of blood was collected from the caudal vein of mice every week to determine blood glucose level using a simple bloodglucose level analyzer GLUTESTACE (Sanwa Kagaku Kenkyusho Co., Ltd.).

SMILES	Visceral fat in the patients [1]	Elevation of blood glucose level compared with control group (KK-Ay mice)	Mouse body weight change compared with control group (KK-Ay mice)
Cc1c(C)c2c(c(C)c1O)CCC(C)(COc1ccc(CC3SC(=O)NC3=O)cc1)O2 (stereo not drawn) [Troglitazone]	reduces	–	–
CCc1ccc(CCOc2ccc(CC3SC(=O)NC3=O)cc2)nc1 (stereo not drawn) [Pioglitazone, reference compound]	–	suppressed significantly	without any significant difference

From US7090874B2, “Ligand for peroxisome proliferator-activated receptor” (Kaneka Corporation, priority 2001, dated 2006)
